Data from PubChem BioAssay AID1347075 (National Center for Advancing Translational Sciences (NCATS), 2019).
Among all 400,000 compounds or so, about 5,500 (1.4%) were called active. Inconclusive means that the source gave no clear call. Such entries were picked first, then a sample of the others. Calls follow the shape of the dose curve; as a rule, active = well fitted cell-killing curve with a large enough effect; inconclusive = small, poorly fitted or top-dose-only effect, or effect the other way; inactive = flat fitted curve, though single readings scatter. A potency beside an inconclusive call is a rough fit, not a confirmed value.

Experiment: qHTS assay for MDR1-selective chemotherapeutics: Primary screen using the parental adenocarcinoma cell KB-3-1; also: nearly all actives have a fitted effect of over 60% in size
Settings: KB-3-1 viability, CellTiter-Glo ATP luminescence, 72 h; activity change, negative = cytotoxic: at 46.1 µM (top of the series)
Summary of the method: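 Cytotoxicity measured as CellTiter-Glo luminescence after 72 h at 37 C. Compound titrations were pinned onto drug-naive KB-3-1 parental adenocarcinoma cells grown in DMEM with 10% FBS, and normalized data fitted to concentration-response curves.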
% is scaled to controls: 0 for no effect and ±100 for the full control effect; potency is read from the fitted curve at half-maximal effect.

Row | SMILES | Potency | activity change, negative = cytotoxic
1 | O=C(NCc1ccccn1)C(=O)NCC1OCCN1S(=O)(=O)c1ccc(F)cc1 (stereo not drawn) | inactive | 
2 | COc1cc(NC(=O)Cn2cc(C(=O)c3ccc(F)cc3)c(=O)c3ccc(C)nc32)cc(OC)c1 | inactive | 
3 | CN(C)c1ccc(NC2=C(Cl)C(=O)c3ccccc3C2=O)cc1 | inconclusive: 18.4 µM [cytotoxic, single point] | 
4 | COCCNC(=O)C1CCN(C(=O)c2cc3sccc3n2Cc2ccc(F)cc2)CC1 | inconclusive: 23.1 µM [cytotoxic, partial curve, poor fit] | 
5 | CC(=O)N1c2ccc(S(=O)(=O)N(C)CC(=O)N(C)Cc3ccccc3)cc2CC1C (stereo not drawn) | inconclusive: 13 µM [cytotoxic, single point] | 
6 | O=C(Cn1cc(C(=O)c2ccco2)c2ccccc21)NC1CCCC1 | inactive | 
7 | Cc1ccc(CNC(=O)CN2C(=O)CSc3ccc(S(=O)(=O)N4CCC(C)CC4)cc32)cc1 | inconclusive: 18.4 µM [cytotoxic, single point] | 
8 | O=C1c2ccccc2C(=O)N1c1ccccn1 | inactive | 
9 | CC(O)(c1ccccc1)c1nc(/C=C/c2ccccc2)cs1 (stereo not drawn) | inactive | 
10 | O=C(c1cccc(Oc2c(Cl)cccc2[N+](=O)[O-])c1)N1CCCCC1 | inactive | 
11 | COC(=O)c1ccc2nc(NC(=O)C(C)(C)C)sc2c1 | inconclusive: 20.6 µM [cytotoxic, single point] | 
12 | C[C@H](NC(=O)c1nc[nH]c1C(=O)N[C@@H](C)C(=O)OCc1ccccc1)C(=O)OCc1ccccc1 | inconclusive: 29.1 µM [rising, partial curve, poor fit] | 
13 | CCN(CC(=O)NC(C)(C)C)Cc1nc2c(Br)cc(Br)cc2c(=O)[nH]1 | inactive | 
14 | CCOc1cc(/C=C2\C(=O)N(Cc3ccc(C)cc3)C(C)=C2C(=O)OC)ccc1O | inconclusive: 29.1 µM [cytotoxic, single point] | 
15 | COC(=O)N/N=C/c1c(C)nn(-c2cccc(Cl)c2)c1Cl | inconclusive: 29.1 µM [cytotoxic, single point] | 
16 | O=C(COc1cccc2ccccc12)NNC(=O)CSCCO | inactive | 
17 | COc1cc(SC)ccc1C(=O)Nc1cc(C)c(OCC(=O)N2CCOCC2)c(C)c1 | inactive | 
18 | CCOc1cc(/C=C2\C(=O)N(Cc3ccco3)C(C)=C2C(=O)OC)ccc1O | inconclusive: 29.1 µM [cytotoxic, single point] | 
19 | Cc1ccc(C)c2[nH]c(=O)c(C(c3nnnn3Cc3ccco3)N3CCc4ccccc4C3)cc12 (stereo not drawn) | inconclusive: 23.1 µM [cytotoxic, partial curve, poor fit] | 
20 | O=C(C1=C[C@@H](c2ccc(C(F)(F)F)cc2)C[C@@H](OCCCCO)O1)N1CCN(Cc2ccccc2)CC1 | inconclusive: 29.1 µM [cytotoxic, single point] | 
21 | CC1(C(=O)NCc2cccc3ccccc23)CCN1Cc1cccc2c1OCO2 (stereo not drawn) | inconclusive: 32.6 µM [cytotoxic, single point] | 
22 | COC(=O)c1cccc(/C=N/NC(N)=S)c1O | inconclusive: 20.6 µM [cytotoxic, single point] | 

Row | SMILES | Potency | activity change, negative = cytotoxic
23 | Cc1ccc2c(c1)N(CCC(=O)NCCCN1CCCC1)C(=O)CO2 | inconclusive: 18.4 µM [cytotoxic, single point] | 
24 | CC(C(=O)NC(=O)NC1CCCCC1)N1CCN(c2ccc(O)cc2)CC1 (stereo not drawn) | inactive | 
25 | O=C(Nc1ccc(C(=O)N2CCOCC2)cc1)c1cccc(Br)c1 | inactive | 
26 | COc1cccc(Nc2nc(N)c([N+](=O)[O-])c(NCc3ccccc3)n2)c1 | inconclusive: 29.1 µM [cytotoxic, single point] | 
27 | COC(=O)Nc1ccc(S(=O)(=O)N2CCC(C(=O)N3CCCCC3C)CC2)cc1 (stereo not drawn) |  | inconclusive: -8.3%
28 | O=C(Cc1ccccc1F)NNC(=O)c1cccs1 | inconclusive: 10.3 µM [rising, partial curve, poor fit] | 
29 | O=C(NCC(c1ccco1)N1CCN(c2ccccc2)CC1)C1CCCCC1 (stereo not drawn) | inactive | 
30 | CCOC(=O)/C=C/C(=O)Nc1ccccc1-c1ccccc1NC(=O)/C=C/C(=O)OCC | inconclusive: 29.1 µM [cytotoxic, single point] | 
31 | Cc1ccccc1C(=O)N1CCC(C(=O)Nc2ccc(S(=O)(=O)N3CCCCC3)cc2)CC1 | inconclusive: 9.2 µM [cytotoxic, partial curve] | 
32 | COc1cc(/C=C2/C(=O)NN(c3cccc(C)c3)C2=O)ccc1OC(=O)c1ccco1 | inactive | 
33 | N=C1/C(=C/c2coc3ccccc3c2=O)C(=O)N=C2SC(c3ccco3)=NN12 | inconclusive: 18.4 µM [rising, single point] | 
34 | O=C(c1cc2sccc2n1Cc1ccc(F)cc1)N1CCN(c2nc3ccccc3s2)CC1 | inconclusive: 3.26 µM [cytotoxic, full curve] | 
35 | O=C(CCc1nc2ccccc2c(=O)[nH]1)NCc1cccc(Cl)c1 | inconclusive: 23.1 µM [cytotoxic, partial curve, poor fit] | 
36 | COc1cc(CC(=O)Nc2ccc3c(c2)CCC3)cc(OC)c1OC | inconclusive: 18.4 µM [cytotoxic, single point] | 
37 | COc1ccccc1N(CC(=O)Nc1ccc(Br)cc1F)S(=O)(=O)c1cccs1 | inconclusive: 11.6 µM [cytotoxic, partial curve, poor fit] | 
38 | Cc1ccc(N2C(=N)/C(=C3/Nc4ccccc4S3)C(c3ccccc3)C2=O)cc1 (stereo not drawn) | inactive | 
39 | CN1OC[C@@H]2CN(C(=O)Nc3ccccc3)[C@H](c3ccc(N4CCCCC4)cc3)C[C@@H]21 | inactive | 
40 | O=C1CCCc2cc(S(=O)(=O)N3CCCC(C(=O)NCc4ccc(Cl)cc4)C3)ccc2N1 (stereo not drawn) | inconclusive: 25.9 µM [cytotoxic, single point] | 
41 | O=C(Nc1nc(-c2ccccn2)cs1)c1ccc([N+](=O)[O-])o1 | inconclusive: 18.4 µM [cytotoxic, single point] | 
42 | Cc1ccc(CN2C(=O)CSC(C)C2=O)cc1 (stereo not drawn) | inactive | 
43 | COc1cc(C)c(NC(=O)C2CCN(S(=O)(=O)c3cccs3)CC2)cc1OC | inconclusive: 29.1 µM [cytotoxic, single point] | 

Exported in CSV form: 2 of the compounds above
Row,SMILES,Potency,"activity change, negative = cytotoxic"
37,COc1ccccc1N(CC(=O)Nc1ccc(Br)cc1F)S(=O)(=O)c1cccs1,"inconclusive: 11.6 µM [cytotoxic, partial curve, poor fit]",
38,Cc1ccc(N2C(=N)/C(=C3/Nc4ccccc4S3)C(c3ccccc3)C2=O)cc1 (stereo not drawn),inactive,
